## Percent effect of library compounds

By UniProt entry, the sequences of proteins in these tests, tags left out. Residues count along the entry.
UniProt Q4DA54, 1-478: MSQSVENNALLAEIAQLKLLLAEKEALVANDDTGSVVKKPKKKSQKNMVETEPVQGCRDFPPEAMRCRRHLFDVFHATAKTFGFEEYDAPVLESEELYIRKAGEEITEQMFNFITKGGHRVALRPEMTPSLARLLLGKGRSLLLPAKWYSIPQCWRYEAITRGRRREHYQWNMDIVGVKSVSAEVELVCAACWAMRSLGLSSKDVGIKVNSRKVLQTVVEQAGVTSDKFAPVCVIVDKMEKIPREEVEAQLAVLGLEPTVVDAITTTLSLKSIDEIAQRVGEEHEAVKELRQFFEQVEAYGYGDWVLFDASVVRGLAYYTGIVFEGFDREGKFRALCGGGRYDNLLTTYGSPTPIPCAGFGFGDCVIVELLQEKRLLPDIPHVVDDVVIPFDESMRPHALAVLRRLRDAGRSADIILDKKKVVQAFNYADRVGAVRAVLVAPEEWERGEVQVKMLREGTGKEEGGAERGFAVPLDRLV

Results are given as percent effect. The record does not define 0% and 100%; most values in the screen are far below 50% and negative numbers occur (in some assays of this library far below -100). This is an unselected part of the compounds tested.

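Enzyme assay of histidyl-tRNA synthetase; the read-out is not stated. Target: Histidine-tRNA ligase, Trypanosoma cruzi CL Brener (UniProt Q4DA54). Tested at 30 µM. Direction is inferred from retests: higher values go with stronger inhibition. Size under these conditions: about 69,000 compounds, about 31 of them at 50% or above in at least one test.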

{"smiles": "Cc1cc(SC(C)(C)C)ccc1NC(=O)CNC(N)=O", "Percent Effect": 4.865}
{"smiles": "Cc1nc(C)c(CN2CCC(N(C)Cc3nnc(C4CC4)o3)C2)s1", "stereo": "stereo not shown", "Percent Effect": 6.857}
{"smiles": "c1ccc(Cc2noc(CN3CCCC3C3CCCCC3)n2)cc1", "stereo": "stereo not shown", "Percent Effect": 5.172}
{"smiles": "CCCOC1CCCN(c2nc(CC)nc3c2cnn3C)C1", "stereo": "stereo not shown", "Percent Effect": 2.97}
{"smiles": "CC(C)NC(=O)[C@H]1C[C@@H]2[C@@H](C1)OCCN2CC1CC1", "Percent Effect": 7.527}
{"smiles": "c1cncc(NCCCNC2CCSC2)c1", "stereo": "stereo not shown", "Percent Effect": 11.34}
{"smiles": "Cc1cc(O)c(OCC(=O)/N=c2\\[nH]cc(C)s2)cn1", "Percent Effect": -1.087}
{"smiles": "CNC(=O)c1nc(CC(=O)Nc2cccc(C(F)(F)F)c2)no1", "Percent Effect": 5.699}
{"smiles": "CN1CCCN(c2nc(C3CCCC3)nc3c2cnn3C)CC1", "Percent Effect": 7.921}
{"smiles": "COC(C)(C)CNC(=O)N1CCCC1c1c(C)n[nH]c1C", "stereo": "stereo not shown", "Percent Effect": 7.317}
{"smiles": "Cc1cc(NCCC(=O)NC2CCS(=O)(=O)C2)nc(-c2ccncc2)n1", "stereo": "stereo not shown", "Percent Effect": -0.8772}
{"smiles": "O=C(NCCc1nncn1C1CC1)C1(Cc2ccccc2)CCC1", "Percent Effect": 6.863}
{"smiles": "Cc1oncc1C(=O)N[C@@H]1CN(Cc2ccoc2)C[C@@H]2CCCO[C@@H]21", "Percent Effect": 5.291}
{"smiles": "CCS(=O)(=O)Nc1ccc2oc(C)c(C(C)=O)c2c1", "Percent Effect": 3.627}
{"smiles": "Cn1ccc2ccc(C(=O)N3CCN(C(=O)N4CCOCC4)CC3)cc21", "Percent Effect": -2.479}
{"smiles": "Cc1cnc(C(=O)N2CCCC(c3c(C)c(=O)nc4n3CCC4)C2)cn1", "stereo": "stereo not shown", "Percent Effect": -1.064}
{"smiles": "CCC(C)(CNC(=O)Nc1nncs1)N1CCOCC1", "stereo": "stereo not shown", "Percent Effect": 7.831}
{"smiles": "Cc1cccc(C2(CNC(=O)c3ccnc(N(C)C)c3)CCOCC2)c1", "Percent Effect": -2.26}
{"smiles": "CC(C)(C)c1nnc2n1C(C(=O)N1CCN(c3ncccn3)CC1)CC2", "stereo": "stereo not shown", "Percent Effect": 1.775}
{"smiles": "COCc1csc(NC(=O)N2CCC(Cc3cnn(C)c3)C2)n1", "stereo": "stereo not shown", "Percent Effect": 4}
{"smiles": "COCC(=O)NCc1cc(=O)n2c(n1)CN(Cc1ccccc1)CCC2", "Percent Effect": 10.58}
{"smiles": "CCn1c(C)nnc1CN(C)C1CCN(CCc2ccncc2)C1", "stereo": "stereo not shown", "Percent Effect": 0.3774}
{"smiles": "CC(=O)NCCC(=O)NCc1ccc(Br)cc1Cl", "Percent Effect": 11.11}
{"smiles": "CCC(=O)N1CCCN(C(=O)c2cc(C)cc(Br)c2O)CC1", "Percent Effect": 5.882}
{"smiles": "CCN1CCN(Cc2nc(C)no2)CC1", "Percent Effect": 3.488}
{"smiles": "Cc1cc(C)n(CC2CCCCN2CC(=O)Nc2nccs2)n1", "stereo": "stereo not shown", "Percent Effect": 7.143}
{"smiles": "Cn1ccc(CN2CCCC23CCN(Cc2nccn2C)CC3)n1", "Percent Effect": 5.525}
{"smiles": "CCCS(=O)(=O)N1CCC2(CC1)CCn1c(-c3cnn(C)c3)cnc12", "Percent Effect": 4.516}
{"smiles": "Cc1cccc(C(=O)N2C[C@@H]3OCCN(c4ncccn4)[C@@H]3C2)n1", "Percent Effect": 10.27}
{"smiles": "COCCN(C)C(=O)c1ccc(OC)cc1O", "Percent Effect": 0.8264}
{"smiles": "CCn1cc2c(n1)C(COCC1CC1)CN(c1ccc(C)nn1)C2", "stereo": "stereo not shown", "Percent Effect": 3.743}
{"smiles": "Cc1nc(C2CCCN2CC(=O)Nc2c(C)n[nH]c2C)no1", "stereo": "stereo not shown", "Percent Effect": 1.149}
{"smiles": "Cc1ccsc1CN(Cc1ccccn1)CC(C)C", "Percent Effect": 0.813}
{"smiles": "CC(CNS(N)(=O)=O)Oc1cccc(Cl)c1", "stereo": "stereo not shown", "Percent Effect": 3.191}
{"smiles": "CC(C)N(Cc1ccccc1)Cc1nnsc1Cl", "Percent Effect": 8.621}
{"smiles": "Cn1nnc2cc(C(=O)NS(=O)(=O)Cc3ccc(F)cc3)ccc21", "Percent Effect": 10.92}

Repeated from the top, 3 entries:

SMILES,Percent Effect
Cc1cc(SC(C)(C)C)ccc1NC(=O)CNC(N)=O,4.865%
Cc1nc(C)c(CN2CCC(N(C)Cc3nnc(C4CC4)o3)C2)s1 (stereo not shown),6.857%
c1ccc(Cc2noc(CN3CCCC3C3CCCCC3)n2)cc1 (stereo not shown),5.172%

From ChEMBL document CHEMBL3988442, “University of Dundee, Small-Polar-MMV Screening Library” (2021).